According to publication PMC5855093:
These are yes or no findings as the source states them, for the method shown. In cells and extracts the contact can be indirect. Binding can be weak; no strength is given.

Sequences of proteins named here, by UniProt entry; tags and fusion partners are left off. A change or cut given only in a name is not applied to a line headed by its entry.
UniProt Q6GQD1: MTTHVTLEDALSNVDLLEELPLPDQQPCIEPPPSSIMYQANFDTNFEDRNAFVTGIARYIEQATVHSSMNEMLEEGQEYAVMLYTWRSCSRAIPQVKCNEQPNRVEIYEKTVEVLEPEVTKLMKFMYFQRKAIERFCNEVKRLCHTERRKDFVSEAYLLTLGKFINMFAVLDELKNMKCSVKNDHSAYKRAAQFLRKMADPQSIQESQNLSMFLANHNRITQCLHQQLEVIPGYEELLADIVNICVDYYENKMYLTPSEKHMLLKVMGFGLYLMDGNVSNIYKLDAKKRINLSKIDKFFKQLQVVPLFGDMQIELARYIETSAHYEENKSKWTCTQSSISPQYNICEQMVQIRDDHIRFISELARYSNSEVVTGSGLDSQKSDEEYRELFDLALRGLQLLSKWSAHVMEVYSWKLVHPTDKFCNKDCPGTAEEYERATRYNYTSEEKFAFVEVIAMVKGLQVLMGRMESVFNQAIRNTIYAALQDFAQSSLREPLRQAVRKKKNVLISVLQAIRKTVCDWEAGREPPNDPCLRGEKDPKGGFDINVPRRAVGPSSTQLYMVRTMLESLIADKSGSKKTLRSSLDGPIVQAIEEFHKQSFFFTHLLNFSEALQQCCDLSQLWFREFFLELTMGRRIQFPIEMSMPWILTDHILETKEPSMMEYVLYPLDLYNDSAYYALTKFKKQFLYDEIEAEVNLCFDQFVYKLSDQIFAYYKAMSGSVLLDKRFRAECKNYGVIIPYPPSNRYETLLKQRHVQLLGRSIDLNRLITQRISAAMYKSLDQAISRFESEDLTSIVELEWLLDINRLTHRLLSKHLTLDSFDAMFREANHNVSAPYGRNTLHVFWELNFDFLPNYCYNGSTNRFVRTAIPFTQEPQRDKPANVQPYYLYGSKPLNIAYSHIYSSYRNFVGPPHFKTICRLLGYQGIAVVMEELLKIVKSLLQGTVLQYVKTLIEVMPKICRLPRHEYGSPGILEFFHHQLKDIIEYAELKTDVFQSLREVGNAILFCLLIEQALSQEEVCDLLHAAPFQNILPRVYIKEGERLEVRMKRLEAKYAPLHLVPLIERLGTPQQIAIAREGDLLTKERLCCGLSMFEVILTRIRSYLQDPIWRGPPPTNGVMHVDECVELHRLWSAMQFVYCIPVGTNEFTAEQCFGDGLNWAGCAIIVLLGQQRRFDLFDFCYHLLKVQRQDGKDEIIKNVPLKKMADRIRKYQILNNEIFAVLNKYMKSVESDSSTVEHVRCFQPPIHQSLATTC
UniProt P51115: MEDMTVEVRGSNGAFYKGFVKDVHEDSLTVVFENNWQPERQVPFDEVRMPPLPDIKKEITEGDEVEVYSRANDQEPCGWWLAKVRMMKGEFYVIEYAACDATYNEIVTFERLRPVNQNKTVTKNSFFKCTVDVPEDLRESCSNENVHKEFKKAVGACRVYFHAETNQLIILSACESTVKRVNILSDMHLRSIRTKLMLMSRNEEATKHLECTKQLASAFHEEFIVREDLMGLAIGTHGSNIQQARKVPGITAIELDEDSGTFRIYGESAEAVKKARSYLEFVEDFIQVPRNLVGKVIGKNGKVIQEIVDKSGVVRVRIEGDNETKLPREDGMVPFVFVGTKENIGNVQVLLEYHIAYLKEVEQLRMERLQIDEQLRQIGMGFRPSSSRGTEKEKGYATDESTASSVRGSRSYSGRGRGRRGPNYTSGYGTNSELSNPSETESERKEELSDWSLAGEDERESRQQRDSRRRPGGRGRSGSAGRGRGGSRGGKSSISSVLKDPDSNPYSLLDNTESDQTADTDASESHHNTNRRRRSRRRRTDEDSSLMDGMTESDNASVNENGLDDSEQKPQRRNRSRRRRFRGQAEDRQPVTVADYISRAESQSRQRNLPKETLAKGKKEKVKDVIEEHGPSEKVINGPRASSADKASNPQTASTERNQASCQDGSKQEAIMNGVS

How the values were obtained:
[1] = biological target: CYFIP2 (endogenous, Xenopus retinal ganglion cell axons) (Xenopus laevis (endogenous in Xenopus retinal cultures)) (UniProt Q6GQD1); assay: proximity ligation; Duolink in situ PLA on fixed Xenopus retinal explant cultures, endogenous proteins; signal counted in the RGC growth cone (central and peripheral domains)
[2] = biological target: CYFIP2 (endogenous, Xenopus retinal ganglion cell axons) (Xenopus laevis (endogenous in Xenopus retinal cultures)) (UniProt Q6GQD1); assay: proximity ligation; Duolink in situ PLA on fixed Xenopus retinal explant cultures, endogenous proteins; signal counted in the RGC axon shaft

binding [1]: binds
binding [2]: binds
Substance: Xenopus RNA binding protein Fragile X mental retardation-related protein (xFXR) (from UniProt P51115)
